Article PMC4468220, “Defective Proteasome Delivery of Polyubiquitinated Proteins by Ubiquilin-2 Proteins Containing ALS Mutations” (PLoS ONE, 2015)
No constants are given. Whether binding was seen depends on the method and setting. Binding seen in cells or lysates may run through a third protein. Some binding calls cover weakened binding; strength is not graded here.

Chains of the proteins cited; added tags and fusions are not shown. Lines headed by an entry give the natural chain unless they say otherwise; changes in a name come on top.
UniProt Q9UHD9: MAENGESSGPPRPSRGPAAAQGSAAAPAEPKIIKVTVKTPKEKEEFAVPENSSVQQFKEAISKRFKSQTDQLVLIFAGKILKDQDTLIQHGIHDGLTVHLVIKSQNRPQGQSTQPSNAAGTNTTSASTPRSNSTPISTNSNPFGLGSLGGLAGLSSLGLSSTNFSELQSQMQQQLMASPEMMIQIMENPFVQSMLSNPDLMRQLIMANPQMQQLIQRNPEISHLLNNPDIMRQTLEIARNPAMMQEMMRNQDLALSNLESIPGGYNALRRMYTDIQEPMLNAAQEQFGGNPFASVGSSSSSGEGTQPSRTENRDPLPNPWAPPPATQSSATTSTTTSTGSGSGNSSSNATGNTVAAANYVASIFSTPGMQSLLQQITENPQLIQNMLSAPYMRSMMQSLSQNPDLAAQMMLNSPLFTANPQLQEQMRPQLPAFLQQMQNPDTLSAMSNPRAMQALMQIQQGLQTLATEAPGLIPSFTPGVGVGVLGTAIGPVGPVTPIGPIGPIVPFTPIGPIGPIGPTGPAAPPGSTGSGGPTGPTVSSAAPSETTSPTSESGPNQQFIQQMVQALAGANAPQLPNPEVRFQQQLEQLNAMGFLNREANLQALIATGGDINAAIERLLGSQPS
UniProt P25786: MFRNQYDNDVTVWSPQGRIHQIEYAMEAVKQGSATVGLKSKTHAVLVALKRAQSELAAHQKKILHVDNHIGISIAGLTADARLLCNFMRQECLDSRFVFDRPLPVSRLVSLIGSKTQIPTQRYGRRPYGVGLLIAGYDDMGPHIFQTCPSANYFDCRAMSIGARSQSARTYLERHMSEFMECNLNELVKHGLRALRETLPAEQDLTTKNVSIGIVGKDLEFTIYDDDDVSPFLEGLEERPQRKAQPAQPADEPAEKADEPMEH

Experiments:
Assay in all cases: co-IP; HeLa cells transfected with HA-tagged ubiquilin-2 constructs; lysates in RIPA buffer (0.2% NP40, 50mM Tris pH 7.5, 150mM NaCl, 2mM EDTA); rabbit anti-HA on Protein A/G Dynabeads, 4°C; precipitates blotted for ubiquitin and the alpha 6-subunit; signal normalised to precipitated HA protein
[1] = biological target: HA-tagged wild type human ubiquilin-2 (human) (UniProt Q9UHD9)
[2] = biological target: HA-tagged human ubiquilin-2 P497H (human) (UniProt Q9UHD9)
[3] = biological target: HA-tagged human ubiquilin-2 P506T (human) (UniProt Q9UHD9)
[4] = biological target: HA-tagged human ubiquilin-2 P525S (human) (UniProt Q9UHD9)
[5] = biological target: HA-tagged human ubiquilin-2 P509S (human) (UniProt Q9UHD9)
[6] = biological target: HA-tagged human ubiquilin-2 P497S (human) (UniProt Q9UHD9)

binding [1]: binds | binding [2]: binds | binding [3]: binds | binding [4]: binds | binding [5]: binds | binding [6]: binds
Substance: alpha 6-subunit of the proteasome (from UniProt P25786 1-263)
